Most values lie at the floor of the assay. Slopes are relative: functional sequences can read slightly below zero.

In the data set the test system is Saccharomyces cerevisiae PS128 hsf1 delta, HSF1(1-493) fusion. The experiment in a line: growth estimate (transactivation domain function in HSF1 fusion, heat-shock survival) (a.u. (slope of normalised read count over time)); higher = stronger growth at 37°C, i.e. more transactivation activity. To be noted: library: random library. The procedure: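 Random 60-nt DNA library encoding peptides of up to 20 aa, fused to the C-terminus of yeast HSF1 residues 1-493 (C-terminal TAD deleted) and expressed from the native HSF1 promoter on a CEN plasmid in hsf1-deleted S. cerevisiae PS128. Cells were selected at 37°C on -trp 5-FOA plates for 0, 2, 4, 6 and 8 days and amplicons were sequenced. Growth estimate is the slope of a robust linear fit of total-sum-normalised read counts (normalised to the first time point) over time, using at least 2 replicates. Sequences are classed functional (TAD activity) above a threshold of -0.13, set from stop-codon control sequences.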
QGGPNSLTQGV: the growth estimate is less than -0.25.

Consider AKFVATTVVDTLYLTLSWRS, for which the growth estimate is less than -0.25. Turning to RIGQMPTSAHAPSD, the growth estimate is less than -0.25. The result for DSRDSGYSRQSVGQFGWDRS reads less than -0.25; that for EERIDKAMLGNRLCSWPRGD, less than -0.25; that for RAQSGKNLRTIMGTVSVQVT, less than -0.25. DKVISPHFSRDCRLTYTEEC: the growth estimate was less than -0.25.

Turning to GWGFLG, the growth estimate was less than -0.25.

With YPCLAGRILKDHVRDCLQSD, the growth estimate was -0.203. The result for SIASAYMSSHGRYSRGRSAE reads less than -0.25; that for SMVTSSPLVPEYPRRKCES, less than -0.25. In the case of VPRRNTPVRYTL it was less than -0.25; in that of KPCFSAACEVEPSSVVCYPV, less than -0.25; in that of YFTSSPNEITLPLLSLSARV, less than -0.25. The result for RHGPWIGQRRFVSVQLAEIH reads less than -0.25.

Consider SLSYDSIVISDLML, for which the growth estimate was less than -0.25. The result for RRIHVKWGVLRKAAAVGSAV reads less than -0.25. As for DLYGKCGGYDGFRATSLR, the growth estimate was less than -0.25. The result for VAGVSHTN reads less than -0.25.

Take HVALICLVQASSSGTASLLA: the growth estimate is less than -0.25.

Consider GTGPRLVPTVRPSVMRWDIA, for which the growth estimate was less than -0.25. In the case of SFFVPPRLSKVRFSTCGRVQ, the growth estimate was less than -0.25.

For DTQLRMWSCLVDCAISIAGV, the growth estimate is less than -0.25. The result for GGFRARTYHLDRHDSTSCTY reads less than -0.25; that for LGKLMEQSTASG, less than -0.25; that for FGGRPGEWDPRHPGVSESPG, less than -0.25. As to HKGEDLTSEPRGFRSDWARA, the growth estimate is less than -0.25.

As to LIVLGLRLARRMTQTANASR, the growth estimate is less than -0.25.

In the case of CGRHSSGQVFGYIAVWPPRV, the growth estimate is less than -0.25. Take TADVFDPGSGDLKLQLARYA: the growth estimate is less than -0.25.

Turning to TLSRH, the growth estimate is less than -0.25. The result for TKKVGRRKCKSLPVARRSLI reads less than -0.25. The result for RFKCLVLGRKAGQLYSCAET reads less than -0.25; that for WPWRGPNVLMPRTTA, less than -0.25; that for KCNIKSPLETASYLPNGLLC, less than -0.25.

Consider IKVL, for which the growth estimate was less than -0.25. Turning to RVGIRHYPEHN, the growth estimate was less than -0.25. For RPKIVRILAESRWRMIAFSK, the growth estimate is less than -0.25.

With VSHGHRAGTPLYEAL, the growth estimate was less than -0.25. In the case of NVIYASLFYV it was less than -0.25; in that of SLVSFCCSCSRSRVLGNLGT, less than -0.25; in that of QRDLRAKVKLTLSALI, less than -0.25.

Take LRSS: the growth estimate was less than -0.25. As to ECPAGSIGLQTMCVDFRFI, the growth estimate is less than -0.25. Regarding ATTH, the growth estimate is less than -0.25.

On to KKMYDSTYCRVPSATRPYKT, for which the growth estimate was less than -0.25.

Regarding LCRGLLGWNVEAAMAWSVRS, the growth estimate is less than -0.25. With NSRDRAEISSTTTWRGPNMG, the growth estimate was -0.243.

As to RDDASSYLAQS, the growth estimate was less than -0.25.

In the case of RAYRRVA, the growth estimate was less than -0.25. The result for RGVAPPKFEIVSP reads less than -0.25; that for SGKNIKGQMYDRIMYPNYLS, less than -0.25; that for VRDGVREAVRGIWCCIRSWI, less than -0.25. Regarding YDLRTWGTASDMAMANLCTQ, the growth estimate is less than -0.25.

For RIPSVVTMERSGFQKV, the growth estimate is less than -0.25. As for IALVTGS, the growth estimate is -0.25. The result for DECQRAVNTEGVLTVAGLII reads less than -0.25. The result for CNTNPQSTSVRLSGTGRRFT reads less than -0.25; that for SDLRCLRHLTVP, less than -0.25; that for VGGLI, less than -0.25. The result for RWKNDTVLDCYSDALAARGP reads less than -0.25.
